Experimental data as given in publication PMC11948031.
Results are given in words; binding and its absence hold for the method and conditions named. In cells and extracts the contact can be indirect. Some results given as binding are weak or reduced against the parent protein; the word gives no strength.

By UniProt entry, the sequences of proteins in these tests, tags left out.
UniProt P43114: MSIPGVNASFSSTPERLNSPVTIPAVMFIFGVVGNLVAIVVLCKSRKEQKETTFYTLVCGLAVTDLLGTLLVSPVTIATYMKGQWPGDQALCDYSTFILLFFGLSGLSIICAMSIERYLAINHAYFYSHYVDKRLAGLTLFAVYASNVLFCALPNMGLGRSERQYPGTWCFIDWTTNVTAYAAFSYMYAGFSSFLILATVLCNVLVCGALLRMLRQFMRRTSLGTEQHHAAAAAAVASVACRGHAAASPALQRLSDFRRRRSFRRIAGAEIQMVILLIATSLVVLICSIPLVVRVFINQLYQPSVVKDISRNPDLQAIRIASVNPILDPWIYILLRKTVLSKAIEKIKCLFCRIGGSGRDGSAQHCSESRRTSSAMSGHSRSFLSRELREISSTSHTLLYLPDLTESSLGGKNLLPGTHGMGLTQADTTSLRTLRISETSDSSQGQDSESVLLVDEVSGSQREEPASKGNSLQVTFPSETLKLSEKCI

T1: TGF-β1 receptor TGFBRII (rat (endogenous in neonatal rat cardiac fibroblasts)) (UniProt P38438)
T1 sequence: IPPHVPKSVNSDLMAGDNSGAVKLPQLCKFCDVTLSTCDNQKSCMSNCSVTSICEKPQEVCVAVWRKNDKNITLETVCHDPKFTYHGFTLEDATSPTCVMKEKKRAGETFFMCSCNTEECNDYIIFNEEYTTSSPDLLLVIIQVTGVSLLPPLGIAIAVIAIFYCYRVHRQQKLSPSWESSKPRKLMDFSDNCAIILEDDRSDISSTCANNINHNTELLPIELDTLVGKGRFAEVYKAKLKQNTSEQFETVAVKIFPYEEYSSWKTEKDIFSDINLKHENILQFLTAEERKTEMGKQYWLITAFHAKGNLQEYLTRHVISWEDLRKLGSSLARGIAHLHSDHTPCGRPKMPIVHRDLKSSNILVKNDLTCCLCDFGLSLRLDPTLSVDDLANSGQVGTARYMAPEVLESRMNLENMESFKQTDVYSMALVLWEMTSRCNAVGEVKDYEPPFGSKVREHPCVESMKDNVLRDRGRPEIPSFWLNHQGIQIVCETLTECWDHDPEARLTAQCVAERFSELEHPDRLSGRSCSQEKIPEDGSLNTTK

B1: TGFBRI (receptor, UniProt P80204 30-501)
chain: LQCFCHLCTKDNFTCETDGLCFVSVTETTDKVIHNSMCIAEIDLIPRDRPFVCAPSSKTGAVTYCCNQDHCNKIELPTTGPFSEKQSAGLGPVELAAVIAGPVCFVCIALMLMVYICHNRTVIHHRVPNEEDPSLDRPFISEGTTLKDLIYDMTTSGSGSGLPLLVQRTIARTIVLQESIGKGRFGEVWRGKWRGEEVAVKIFSSREERSWFREAEIYQTVMLRHENILGFIAADNKDNGTWTQLWLVSDYHEHGSLFDYLNRYTVTVEGMIKLALSTASGLAHLHMEIVGTQGKPAIAHRDLKSKNILVKKNGTCCIADLGLAVRHDSATDTIDIAPNHRVGTKRYMAPEVLDDSINMKHFESFKRADIYAMGLVFWEIARRCSIGGIHEDYQLPYYDLVPSDPSVEEMRKVVCEQKLRPNIPNRWQSCEALRVMAKIMRECWYANGAARLTALRIKKTLSQLSQQEGIKM

Molecular target: T1, TGF-β1 receptor TGFBRII (rat (endogenous in neonatal rat cardiac fibroblasts))
Experiment: co-IP; endogenous proteins; NRCF lysate incubated overnight at 4 °C with protein A/G beads carrying mouse anti-TGFBRII (5 µg/mL); blots for EP4, TGFBRI and TGFBRII; cells untreated, or pretreated with or without grapiprant (1 µM, 30 min) and then treated with TGF-β1 (10 ng/mL, 3 h)

Row | Molecule | binding
1 | Prostaglandin E2 (PGE2) receptor EP4 (from UniProt P43114 1-488) | binds
2 | B1 | binds
